# Reference: PubChem BioAssay AID504834 (National Center for Advancing Translational Sciences (NCATS), 2011)
# In all, about 320,000 compounds went through this assay and about 22,000 (6.9%) were called active. Inconclusive results, whose numbers are uncertain, are shown with a selection of clear calls. Calls follow the shape of the dose curve; as a rule, active = well fitted inhibition curve with a large enough effect; inconclusive = small, poorly fitted or top-dose-only effect, or another doubt; inactive = no such curve, though single readings can be large or run the other way. Potencies beside an inconclusive call are fits to weak or partial responses and may not hold up.
# Assay: Primary qHTS for delayed death inhibitors of the malarial parasite plastid, 96 hour incubation
# Conditions: P. falciparum luciferase reporter growth; series mostly up to 28.7 µM
# Procedure, shortened: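 Infected RBCs, 2% Hct / 0.05% parasitemia final; luciferase-reporter P. falciparum; cpd 96 h, 37 C, 5% CO2; luciferase detection reagent; luminescence.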
# % is scaled to controls: 0 for no effect and ±100 for the full control effect; potency is read from the fitted curve at half-maximal effect.
Structure (SMILES),Potency,"activity change, negative = inhibition"
CC(C)NC(=O)CSCc1c(F)cccc1Cl,inactive,
O=C(O)c1ccccc1C(=O)Nn1cnnc1,inactive,
COc1ccccc1NC(=O)CSc1ccc(-c2ccc(-n3ccnc3)cc2)nn1,"inconclusive: 11.7 µM [inhibitor, single point]",
Cc1[nH]n(-c2cccc3ccccc23)c(=O)c1/C=N/c1sc2c(c1C#N)CCC2,"inconclusive: 10.4 µM [inhibitor, partial curve]",
CC1(C)Cc2c(sc(NC(=O)C(=O)N3CCCCC3)c2C(=O)O)CO1,inactive,
CCN(CC)S(=O)(=O)c1ccc(OC)c(NC(=S)Nc2ccc(C)c(C)c2)c1,"inconclusive: 16.5 µM [inhibitor, partial curve, poor fit]",
CCOc1ccc(N(CC)S(=O)(=O)c2ccc3c(c2)n(C)c(=O)c(=O)n3C)cc1,"inconclusive: 13.1 µM [inhibitor, partial curve, poor fit]",
O=C(COc1ncnc2sccc12)NC1CCCc2ccccc21 (stereo not given),"inconclusive: 10.4 µM [inhibitor, partial curve, poor fit]",
COc1cccc(OCC(O)CNC(=O)c2oc3ccc(C)cc3c2C)c1 (stereo not given),"inconclusive: 3.7 µM [inhibitor, partial curve]",
O=C(Nc1sc2c(c1C(=O)NC1CCCCC1)CCC2)c1ccco1,,inactive: -11.6% [at 5.75 µM]
CCC(c1nnnn1C(C)(C)CC)N(CCN1CCOCC1)Cc1cc2cc(C)ccc2[nH]c1=O (stereo not given),"inconclusive: 18.5 µM [inhibitor, single point]",
COc1cc2c(cc1OC)C(C)N(C(C)=O)CC2 (stereo not given),inactive,
COC(=O)c1ccc(NC(=O)C2CCCN2C(=O)OCc2ccccc2)cc1 (stereo not given),active: 5.86 µM,
COc1ccc(CC(=O)NNC(=O)CSc2nc(C)c(C)c(=O)[nH]2)cc1,"inconclusive: 10.4 µM [inhibitor, single point]",
O=[N+]([O-])c1ccc(/C=N/Nc2nc(-c3ccccc3)c3cc(Br)ccc3n2)o1,inactive,
S=C(NC1CC1)N1CCN(C(=S)NC2CC2)CC1,"inconclusive: 11.7 µM [inhibitor, single point]",
Cc1ccccc1NC(=S)N(CCN1CCCCCC1)Cc1cccs1,"inconclusive: 11.7 µM [inhibitor, partial curve, poor fit]",
CC(=O)c1c(C)[nH]c(C(=O)COc2ccc3c(C)cc(=O)oc3c2)c1C,"inconclusive: 1.04 µM [inhibitor, partial curve, poor fit]",
Cc1cc(C(=O)NNc2ccc(C)c(C)c2)no1,inactive,
COc1ccc(/C=c2\s/c(=C(/C#N)C(=O)NCc3ccco3)n(-c3ccccc3)c2=O)cc1,inactive,
COc1ccc(-c2cc(-c3nnc(COC(=O)c4ccncc4)o3)c3ccccc3n2)cc1OC,"inconclusive: 6.57 µM [inhibitor, partial curve, poor fit]",
COc1ccccc1OC(=O)CCN1c2ccccc2Sc2ccccc21,inactive,
CC(C)Oc1ccc(CCc2nnc(SCC(=O)O)n2-c2ccccc2)cc1,"inconclusive: 0.185 µM [inhibitor, partial curve, poor fit]",
N#CCC(=O)Nc1ccc(C(=O)OCC(=O)c2ccc3c(c2)NC(=O)CO3)cc1,"inconclusive: 9.28 µM [inhibitor, partial curve]",

# Single values from the entries so far.
# Potency with `CCC(c1nnnn1C(C)(C)CC)N(CCN1CCOCC1)Cc1cc2cc(C)ccc2[nH]c1=O` (stereo not given) reads inconclusive: 18.5 µM [inhibitor, single point]
# activity change, negative = inhibition with `O=C(Nc1sc2c(c1C(=O)NC1CCCCC1)CCC2)c1ccco1` reads inactive: -11.6% [at 5.75 µM]
# Potency with `O=C(COc1ncnc2sccc12)NC1CCCc2ccccc21` (stereo not given) reads inconclusive: 10.4 µM [inhibitor, partial curve, poor fit]
# Potency with `COc1ccccc1OC(=O)CCN1c2ccccc2Sc2ccccc21` reads inactive
# Potency with `CC1(C)Cc2c(sc(NC(=O)C(=O)N3CCCCC3)c2C(=O)O)CO1` reads inactive

# Following part

Structure (SMILES),Potency,"activity change, negative = inhibition"
CCC(=O)c1ccc(OCCn2cnc3ccccc32)cc1,"inconclusive: 1.31 µM [inhibitor, full curve, poor fit]",
Cc1cccc(NC(=O)CSc2nnnn2C)n1,inactive,
CCOc1cccc(-c2nn3c(-c4ccccn4)nnc3s2)c1,active: 8.28 µM,
CC(=O)Nc1ccc(OCC(O)CN2CCN(S(=O)(=O)c3ccc(NC(C)=O)cc3)CC2)cc1 (stereo not given),"inconclusive: 10.4 µM [inhibitor, single point]",
CC(C)c1cc(C(=O)N2CCCC(C(=O)c3ccc4ccccc4c3)C2)on1 (stereo not given),"inconclusive: 2.62 µM [inhibitor, full curve]",
O=C(COC(=O)c1ccc(O)cc1)NC1CCCC1,inactive,
CN1CCN(C(=O)c2sc(=S)n(-c3ccccc3)c2N)CC1,"inconclusive: 14.7 µM [inhibitor, partial curve]",
CCN(CC)C(=O)CSc1nnc2nnc3cc(OC)ccc3n12,inactive,
C=CCN1C(=O)N(c2ccc(F)cc2)C(=O)C1CC(=O)Nc1ccc(Cl)cc1 (stereo not given),"inconclusive: 4.65 µM [inhibitor, partial curve, poor fit]",
CC(NCc1ccccc1O)c1ccccc1 (stereo not given),inactive,
C/C(=N/N=C/c1ccc(N(C)C)cc1)c1ccccc1,"inconclusive: 18.5 µM [inhibitor, single point]",
O=[N+]([O-])c1ccc2c(c1)C(N1CCOCC1)/C(=C/COc1ccc3ccccc3c1Br)O2 (stereo not given),"inconclusive: 18.5 µM [inhibitor, single point]",
COCCNC(=O)c1ccccc1NC(=O)c1ccccc1N(C)S(=O)(=O)c1ccc(C)cc1,"inconclusive: 5.22 µM [inhibitor, partial curve]",
CC1(C)C2CCC1(C)C(OC(=O)CNc1ccccc1)C2 (stereo not given),"inconclusive: 18.5 µM [inhibitor, single point]",
O=C(Nc1ccccc1C(=O)O)c1cccc(NS(=O)(=O)c2ccc(Br)cc2)c1,inactive,
Cc1cccc(C(C)C)c1NC(=O)COC(=O)CNS(=O)(=O)c1ccccc1,inactive,
O=C(CCCc1ccccc1)N1CCN(c2ccc([N+](=O)[O-])cc2)CC1,inactive,
O=C(c1ccc([N+](=O)[O-])cc1)N1CCN(Cc2ccccc2[N+](=O)[O-])CC1,"inconclusive: 5.22 µM [inhibitor, partial curve]",
CCCCCN1CC(=O)N2Cc3[nH]c4ccccc4c3C[C@H]2C1=O,"inconclusive: 18.5 µM [inhibitor, single point]",
N#Cc1c(-c2ccco2)nc(SCC(=O)Nc2cccc(Cl)c2)[nH]c1=O,"inconclusive: 2.94 µM [inhibitor, full curve]",
COc1ccc(-c2[nH]ncc2[C@@H]2C[C@H]3CN(Cc4ccccc4C)C(=O)[C@]34CCCN24)cc1,inactive,
CCN=C1NN=C(c2cc(C)n(CCc3ccccc3)c2C)CS1,"inconclusive: 18.5 µM [inhibitor, single point]",
O=C(NCc1cccs1)c1ccc(Cl)c(S(=O)(=O)N2CCCC2)c1,"inconclusive: 0.0029 µM [inhibitor, full curve, poor fit]",
Cc1ccc2nc(N3CCN(C(=O)c4ccc(F)cc4)CC3)c(C#N)cc2c1,"inconclusive: 5.86 µM [inhibitor, partial curve]",

Structure (SMILES),Potency,"activity change, negative = inhibition"
COCCNC(=O)C(c1ccc(C)o1)N(Cc1ccco1)C(=O)c1snc(C(N)=O)c1N (stereo not given),"inconclusive: 0.0738 µM [inhibitor, full curve, poor fit]",
O=C(O)c1cccc(Nc2c3ccccc3nc3ccccc23)c1,inactive,
O=C1C(=O)N(CCCn2ccnc2)C(c2ccccn2)/C1=C(/O)c1ccccc1 (stereo not given),"inconclusive: 1.17 µM [inhibitor, partial curve, poor fit]",
Cn1nc(-c2ccc(Cl)cc2)c2cc(C(=O)N3CCN(C(=O)c4ccco4)CC3)sc21,"inconclusive: 10.4 µM [inhibitor, single point]",
Cc1cc(C)n(-c2ccc(Oc3ccccc3)c(S(=O)(=O)O)c2)n1,"inconclusive: 5.86 µM [inhibitor, single point]",
CCc1noc(C)c1C(=O)NCCc1ccc(OC)c(OC)c1,"inconclusive: 6.57 µM [inhibitor, partial curve]",
CCC(C)NC(=S)Nc1ccc(C(=O)OC)cc1 (stereo not given),"inconclusive: 6.57 µM [inhibitor, partial curve]",
Cc1ccc(C)c(OCc2cc(C(=O)N(C)Cc3nccn3C)no2)c1,inactive,
COc1ccc(-c2nc(S(=O)(=O)c3ccccc3)c(N3CCOCC3)o2)cc1,inactive,
O=S(=O)(c1ccc(Br)c2nsnc12)N1CCOCC1,active: 9.28 µM,
Cn1c(Cc2ccccc2)nnc1SCC(=O)Nc1cccc(S(=O)(=O)NC2=NCCCCC2)c1,"inconclusive: 10.4 µM [inhibitor, single point]",
O=C(O)CCc1ccc(-c2cccs2)n1CC1CCCO1 (stereo not given),,inactive: -2.72% [at 5.75 µM]
C/C(=N\NC(N)=O)C1(C)CCCCC1,inactive,
N#Cc1ccc2c(c1)N(CCCN1CCC(O)CC1)c1ccccc1S2,"inconclusive: 19 µM [inhibitor, single point]",
Clc1ccc(CSc2ccc(-c3cccnc3)nn2)cc1,"inconclusive: 6.57 µM [inhibitor, partial curve, poor fit]",
O=C(Nc1ccc(F)cc1F)c1c(C(F)(F)F)ccnc1Oc1ccccc1,"inconclusive: 13.1 µM [inhibitor, single point]",
Cc1ccc(-n2c(SCC(=O)c3c(N)n(C)c(=O)n(C)c3=O)nc3sc4c(c3c2=O)CCCC4)c(C)c1,active: 0.828 µM,
CC(CC(=O)Nc1nnc(CC(C)(C)C)s1)c1ccccc1 (stereo not given),"inconclusive: 10.4 µM [inhibitor, single point]",
COc1ccc(C(CNC(=O)COc2c(C)cc(C)cc2C)N2CCOCC2)cc1 (stereo not given),"inconclusive: 18.5 µM [inhibitor, single point]",
Cc1ccc(NC(=O)C(=O)NCCOc2ccc(Cl)cc2)c(C)c1,"inconclusive: 16.5 µM [inhibitor, single point]",
CCC(=Nc1ccc2c(c1)CCC2)c1c(O)n(C)c(=O)n(C)c1=O,inactive,
Cc1cc(C)c(S(=O)(=O)NCC2CCC(C(=O)NCCCN3CCOCC3)CC2)c(C)c1 (stereo not given),"inconclusive: 2.94 µM [inhibitor, partial curve]",
